Test [1] has as its target GNA1870 (factor H binding protein, fHbp) (Neisseria meningitidis) (UniProt Q9JXV4). Nature of the test: ELISA; plastic wells coated with the recombinant Nm proteins (1 μg/well), incubated with human or murine PTX3, human CRP or SAP (22 pmoles) for 1 h at 37°C, then antibodies; A450; both purified.
Test [2] has as its target T1, GNA2132 (Neisserial heparin binding antigen, NHBA) (Neisseria meningitidis) (UniProt Q7DD37).
T1 sequence: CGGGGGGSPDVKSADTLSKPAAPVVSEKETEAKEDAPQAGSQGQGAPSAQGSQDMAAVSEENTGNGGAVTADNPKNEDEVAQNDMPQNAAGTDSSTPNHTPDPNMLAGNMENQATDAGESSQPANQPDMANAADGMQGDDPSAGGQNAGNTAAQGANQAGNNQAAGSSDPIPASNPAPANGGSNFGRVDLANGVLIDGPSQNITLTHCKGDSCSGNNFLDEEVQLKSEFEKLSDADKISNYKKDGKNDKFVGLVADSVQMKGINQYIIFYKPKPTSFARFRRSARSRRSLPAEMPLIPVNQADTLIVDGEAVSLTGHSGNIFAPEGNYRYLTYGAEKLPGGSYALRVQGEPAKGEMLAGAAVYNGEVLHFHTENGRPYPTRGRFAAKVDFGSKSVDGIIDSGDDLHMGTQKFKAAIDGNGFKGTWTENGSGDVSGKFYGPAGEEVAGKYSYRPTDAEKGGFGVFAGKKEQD
The test is described as above.

Chains of the proteins cited; added tags and fusions are not shown. Residues count along the entry.
UniProt Q9JXV4, residues 20-274: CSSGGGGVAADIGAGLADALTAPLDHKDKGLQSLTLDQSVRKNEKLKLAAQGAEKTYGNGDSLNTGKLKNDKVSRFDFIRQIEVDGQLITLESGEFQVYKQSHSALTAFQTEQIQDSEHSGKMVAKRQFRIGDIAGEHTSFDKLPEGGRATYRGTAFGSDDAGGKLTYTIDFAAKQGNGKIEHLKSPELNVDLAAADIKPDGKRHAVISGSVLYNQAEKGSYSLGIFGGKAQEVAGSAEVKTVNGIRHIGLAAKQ
UniProt Q9JXK7, residues 24-362: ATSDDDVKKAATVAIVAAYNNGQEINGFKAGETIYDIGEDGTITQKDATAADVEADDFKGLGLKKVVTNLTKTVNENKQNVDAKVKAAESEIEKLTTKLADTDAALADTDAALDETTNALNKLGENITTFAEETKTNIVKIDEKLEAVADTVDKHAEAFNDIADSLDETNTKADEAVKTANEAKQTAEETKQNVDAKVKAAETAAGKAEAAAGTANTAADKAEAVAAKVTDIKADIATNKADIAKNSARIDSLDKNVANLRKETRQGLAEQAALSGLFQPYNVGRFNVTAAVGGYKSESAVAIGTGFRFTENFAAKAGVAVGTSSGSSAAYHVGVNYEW
UniProt P26022, residues 18-381: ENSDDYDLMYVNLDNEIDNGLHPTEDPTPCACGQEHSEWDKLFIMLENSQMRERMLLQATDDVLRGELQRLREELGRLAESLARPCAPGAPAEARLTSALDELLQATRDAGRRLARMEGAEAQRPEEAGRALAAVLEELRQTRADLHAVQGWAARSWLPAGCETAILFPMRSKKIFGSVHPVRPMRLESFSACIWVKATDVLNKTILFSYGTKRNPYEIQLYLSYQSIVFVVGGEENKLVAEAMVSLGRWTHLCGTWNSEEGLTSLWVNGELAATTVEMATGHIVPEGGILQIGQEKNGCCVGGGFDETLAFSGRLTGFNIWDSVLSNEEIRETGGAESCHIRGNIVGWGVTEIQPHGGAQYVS

Test [3] concerns the target T2, Genome-derived Neisserial antigen GNA0667 (Neisseria meningitidis) (UniProt Q9K0E2).
T2 sequence: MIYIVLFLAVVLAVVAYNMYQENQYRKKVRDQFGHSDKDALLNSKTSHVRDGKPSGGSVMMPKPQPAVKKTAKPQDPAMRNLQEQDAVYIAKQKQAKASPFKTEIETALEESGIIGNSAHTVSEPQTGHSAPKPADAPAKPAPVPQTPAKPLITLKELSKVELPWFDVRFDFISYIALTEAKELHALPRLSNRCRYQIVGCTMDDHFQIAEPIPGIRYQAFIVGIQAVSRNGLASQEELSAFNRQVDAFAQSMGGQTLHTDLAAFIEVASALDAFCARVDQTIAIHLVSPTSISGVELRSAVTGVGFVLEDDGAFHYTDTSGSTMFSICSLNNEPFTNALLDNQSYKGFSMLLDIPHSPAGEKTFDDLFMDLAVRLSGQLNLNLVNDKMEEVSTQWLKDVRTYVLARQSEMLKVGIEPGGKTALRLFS
The test is described as above.

Test [4] addresses Genome-derived Neisserial antigen GNA1220 (Neisseria meningitidis) (UniProt Q7DDD7). The description is as above.
Test [5] has as its target Genome-derived Neisserial antigen GNA1994 (Neisseria meningitidis) (UniProt Q9JXK7). Described as above.
The target of test [6] is Recombinant human long pentraxin 3 (PTX3) (human) (UniProt P26022). In words: ELISA; plates coated with human PTX3 (1 μg/well), incubated with Nm antigens (1 μg/well), revealed with specific polyclonal antibodies (1:1000) and HRP-linked secondary antibody; A450; both purified.

These results are taken from publication PMC4364741.

Results are given in words; binding and its absence hold for the method and conditions named.

B1: Human C reactive Protein (protein, UniProt P02741 19-224)
chain: QTDMSRKAFVFPKESDTSYVSLKAPLTKPLKAFTVCLHFYTELSSTRGYSIFSYATKRQDNEILIFWSKDIGYSFTVGGSEILFEVPEVTVAPVHICTSWESASGIVEFWVDGKPRVRKSLKKGYTVGAEASIILGQEQDSFGGNFEGSQSLVGDIGNVNMWDFVLSPDEINTIYLGGPFSPNVLNWRALKYEVQGEVFTKPQLWP
For B1, the binding result in test [1], in test [2], in test [3], in test [4] and in test [5] was “no binding (tested: 22 pmoles)” each time.

B2: GNA2132 (Neisserial heparin binding antigen, NHBA) (protein, UniProt Q7DD37 18-488)
chain: T1 sequence
B2: the binding result in test [6] is reported as “no binding (tested: 1 μg/well)”.
